Measured values as given in the supplement of paper PMC5407854, “Inhibitor of ppGalNAc-T3-mediated O-glycosylation blocks cancer cell invasiveness and lowers FGF23 levels” (eLife, 2017).
Some of the results follow. Small differences around the control level are noise.

Test system: ppGalNAc-T2 sensor
Test: T2 sensor activation Q score (MG/GFP ratio z-score vs DMSO controls) (SD units); higher = more sensor activation (inhibition of ppGalNAc-T2 glycosylation)
Details: HEK293 sensor cells; 10 µM; 6 h
Method: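 Cells were treated with compound at 10 uM for 6 h, then MG/GFP ratio was read by flow cytometry (10,000 cells per well, duplicate wells). Q = (R - R_neg)/SD_neg relative to DMSO vehicle controls; the signal rises when the glycosyltransferase is inhibited.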

| SMILES | T2 sensor activation Q score |
| --- | --- |
| Cc1ccn2cc(-c3ccc(Cl)cc3)nc2c1 | -1.76 |
| CC(NC(=O)c1ccccc1)C(=O)O (stereo not given) | -0.135 |
| CCCCc1c(C(=O)O)cc(C)cc1C(=O)O | 1.46 |
| CN1CCCN(Cc2ccccc2F)CC1 | 0.06 |
| CCOc1cc(CN(C)CCN(C)C)ccc1O | 0.315 |
| O=S(=O)(O)c1cccc2cccnc12 | 1.98 |
| COc1cccc(N(C(C)=O)C2=C(N3CCCC3)C(=O)c3ccccc3C2=O)c1 | -0.615 |
| CC1(C)NC(C(=O)O)Cc2c1[nH]c1ccccc21 (stereo not given) | -1.12 |
| CC(=O)C1=C(O)C(=O)N(c2cccc(C)c2)C1c1ccccc1 (stereo not given) | 0.01 |
| O=C(c1ccccc1Br)N1CCCCC1CO (stereo not given) | 0.94 |
| Cc1c(N2C(=O)CCC2=O)c(=O)n(-c2ccccc2)n1C | 2.1 |
| CC(C(=O)NCC1(c2ccccc2)CCOCC1)N1CCCC1 (stereo not given) | -0.815 |
| Clc1cccc(CN2CCc3ccccc3C2)c1Cl | -0.485 |
| O=C(NCc1ccncc1)c1cccs1 | -0.91 |
| O=C1CC(N2CCCc3ccccc32)C(=O)N1c1ccccc1 (stereo not given) | -0.785 |
| COc1ccc(C(=O)Nc2ccccc2)cc1N | 0.73 |
| O=C(c1ccccc1)N1CCNCC1 | 0.835 |
| CC(=O)c1ccc(NC(=O)CN2CCCCC2)cc1 | -1.12 |
| Nc1cc(NC(=O)C23CC4CC(CC(C4)C2)C3)cc(Oc2ccccc2)c1 | 0.47 |
| COc1ccc(CN2CCCCCC2)cc1 | 0.525 |

| SMILES | T2 sensor activation Q score |
| --- | --- |
| CCCN(CCO)Cc1ccccc1 | 0.525 |
| COc1ccc(NS(=O)(=O)c2cccc(N)c2)cc1 | -0.185 |
| CCOc1ccc2nc(NC(=O)c3ccc([N+](=O)[O-])c(C)c3)sc2c1 | -1.01 |
| COc1ccc2c(c1)CCC(C1(O)C(=O)Nc3ccccc31)C2=O (stereo not given) | -0.075 |
| NC(=O)c1ccccc1-c1ccccc1C(=O)O | -1.44 |
| COc1ccc(C(C)NC(=O)c2ccccc2)cc1OC (stereo not given) | 1.11 |
| O=S(=O)(c1ccccc1)N1CCN(Cc2ccc(F)cc2)CC1 | 1.14 |
| O=C(Nc1ccc(Cl)cc1)C(=O)NC1CC1 | 0.155 |
| CC1CCCN(CC(O)COc2ccc(Cl)cc2)C1 (stereo not given) | -0.02 |
| CC(=O)c1ccc(N2CCN(C(=O)c3ccccc3F)CC2)c(F)c1 | -0.285 |
| O=C(NC1CCCCCCC1)c1ccc(Br)o1 | -0.61 |
| C/C(=C\c1ccccc1)CN1CC(C)OC(C)C1 (stereo not given) | 0.57 |
| Cc1cccc(OCCNCCO)c1C | 0.02 |
| COc1cccc(NC(=O)CCCc2ccccc2)c1 | 0.23 |
| CCOc1ccc(CN2CCc3ccccc3C2)cc1 | -0.465 |
| CCOc1ccc(Cl)cc1S(=O)(=O)N1CCCCC1 | 0.09 |
| COc1cc(CN2CCCN(C)CC2)c([N+](=O)[O-])cc1OC | -0.005 |
| COc1ccc2[nH]c3c(c2c1)CCNC3=O | 1.17 |
| COc1ccc(Nc2cc(-n3cccn3)ncn2)cc1 | -0.67 |
| O=C(Nc1cccc(NC(=O)c2ccccc2Cl)c1)c1cccc(I)c1 | 0.125 |

Shown as tab-separated lines: entries from further up.
SMILES	T2 sensor activation Q score
COc1ccc(C(C)NC(=O)c2ccccc2)cc1OC (stereo not given)	1.11
CC1CCCN(CC(O)COc2ccc(Cl)cc2)C1 (stereo not given)	-0.02
